From PMC5773651, “Customised in vitro model to detect human metabolism-dependent idiosyncratic drug-induced liver injury” (Archives of Toxicology, 2017) come the findings set out here.

The data set deals with HepG2 cells transduced with AdCYP2E1. Nature of the data set: Cell viability (PI), IC50, AdCYP2E1-HepG2. In kind it is cell-based, human. To be noted: IC50 control / IC50 ADV CYP2E1 x10. On the procedure:
For subculturing purposes, cells were detached by treatment with 0.25% trypsin/0.02% EDTA at 37 °C. For the adenovirus infection studies, cells were seeded in 96-well plates (5000 cells/well) and adenovirus-containing medium was added 48 h later. After 24 h, cells were transferred to the adenovirus-free medium and cultured for an additional 24-h period prior to the incubations performed with the test chemicals. To optimise the expression of the functional enzymes in the adenovirus-transduced HepG2 (Ad-HepG2) cells, different doses (MOI, multiplicity of infection, defined as plaque formation units per cell) of each adenovirus were tested.
The drugs included in the study were chosen based on previous information about their hepatotoxicity. […] Each experimental condition was repeated independently three times (with three wells measured each time). […]
After incubating with dyes, cells were imaged by the Scan^R system (Olympus, Germany). Dyes were excited, and their fluorescence was monitored at the excitation and emission wavelengths at appropriate filter settings. The collected images were analysed using the Scan^R analysis module, which allows the simultaneous quantification of subcellular structures that are stained by different fluorescent probes.

Consider `NNC(=O)c1ccncc1` [Isoniazid], for which the C/x10 ratio was 1.3.
